The values that follow come from article PMC3628100.

No constants are given. Whether binding was seen depends on the method and setting. In cells and extracts the contact can be indirect. A result given as binding can be weak or reduced; the word gives no strength.

Assay [1] concerns the target T1, SREBP1 (sterol regulatory element binding protein 1), endogenous in rat cortical neurons (rat (endogenous in primary cortical neurons)) (UniProt P56720).
T1 sequence: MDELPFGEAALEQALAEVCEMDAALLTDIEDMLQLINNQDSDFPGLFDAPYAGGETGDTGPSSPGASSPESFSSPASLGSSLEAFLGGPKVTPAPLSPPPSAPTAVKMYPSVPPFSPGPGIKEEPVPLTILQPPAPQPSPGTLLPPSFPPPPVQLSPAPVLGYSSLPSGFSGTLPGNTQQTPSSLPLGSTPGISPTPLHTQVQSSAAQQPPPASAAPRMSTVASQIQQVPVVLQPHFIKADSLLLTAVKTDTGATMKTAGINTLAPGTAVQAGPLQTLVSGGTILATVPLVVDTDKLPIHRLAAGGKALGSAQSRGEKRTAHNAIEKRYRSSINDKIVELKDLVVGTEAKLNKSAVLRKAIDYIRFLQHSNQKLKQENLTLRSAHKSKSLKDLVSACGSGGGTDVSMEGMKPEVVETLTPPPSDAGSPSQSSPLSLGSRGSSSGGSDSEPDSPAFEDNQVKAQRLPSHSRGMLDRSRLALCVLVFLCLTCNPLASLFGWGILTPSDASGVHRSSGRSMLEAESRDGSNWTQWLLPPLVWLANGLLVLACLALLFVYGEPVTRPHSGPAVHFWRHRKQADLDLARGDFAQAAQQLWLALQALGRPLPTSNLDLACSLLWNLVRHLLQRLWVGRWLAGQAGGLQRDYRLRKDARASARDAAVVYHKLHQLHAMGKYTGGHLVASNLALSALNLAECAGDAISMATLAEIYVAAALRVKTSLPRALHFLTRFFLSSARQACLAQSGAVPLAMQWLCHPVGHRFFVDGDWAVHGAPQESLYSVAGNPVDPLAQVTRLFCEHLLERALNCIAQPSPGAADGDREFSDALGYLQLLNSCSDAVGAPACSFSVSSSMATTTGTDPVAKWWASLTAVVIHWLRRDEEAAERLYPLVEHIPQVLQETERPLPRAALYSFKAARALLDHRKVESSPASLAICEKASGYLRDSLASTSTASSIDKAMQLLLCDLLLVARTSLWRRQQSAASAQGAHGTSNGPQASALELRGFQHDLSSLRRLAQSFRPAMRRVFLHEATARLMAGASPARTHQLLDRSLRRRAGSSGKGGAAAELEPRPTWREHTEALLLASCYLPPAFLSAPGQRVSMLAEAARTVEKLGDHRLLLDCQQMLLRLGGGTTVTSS
Description: co-IP; lysates of primary rat cortical neurons (control or virus-infected), 500 µg protein, precipitated with 2 µg anti-N-terminus SREBP1 antibody H-160 overnight at 4°C, protein A-sepharose; 25 mM Tris pH 6.8, 0.5% Triton X-100, 0.5% Nonidet P-40; Western blot. (In general: Immunoblotting shows a protein as a band on a membrane.)

Assay [2] concerns the target T1, SREBP1 (sterol regulatory element binding protein 1), endogenous in rat cortical neurons (rat (endogenous in primary cortical neurons)). Description: co-IP; Supporting Information Fig 7; cells and precipitating antibody not given.

For the substance “C99, the β-cleaved C-terminal fragment of hAPP fused to the APP signal peptide sequence (human) (domain or fragment)”, in assay [1], the binding entry was “binds”.
With APLP1 (APP-like protein 1), in assay [2], the binding entry is on record as “binds”.
Take “human APP695 without its C-terminal region (APPΔC) (domain or fragment)”: the binding result in assay [1] was “binds”.
